This data set concerns the molecule itself. In words: dynamic light scattering in PBS.

Results on one protein are retold here after patent US20220259268A1 (NATIONAL UNIVERSITY CORPORATION TOKAI NATIONAL HIGHER …, published 2022).

B1: Nhead recombinant protein (AtaA59-325-GCN4pII-His) (other)
chain: MATVQVGGGTNSGTTATASTNCADLYNYQNPENSGSGAAGNYNAGNPSVCSIAIGENAQGGTSGTGGSPGIAIGGNSKATGGLSVAIGGYAQATNVGSIALGTAALSSGFNSLAISRQAAATNNYSIAIGTTSVSKGVGSIAMGHSTNASGDQSIAIGSSDAVNSATATTTYDGTTNTQASGSKSIAIGASAKASTNNSIALGAGSVTSAQSGNSYLTGVGASATNGVVSVGTSTATRRIQNVADGSAASDAVTVAQLDKAYDDTNGRMKQIEDKIEEILSKIYHIENEIARIKKLIKLHHHHHH
notes: Made in E. coli BL21 star (DE3) and purified; The construct was designed to form a homotrimer through the GCN4pII tag; The oligomeric state of the purified protein is not measured in the text; also called E. coli recombinant Nhead; recombinant Nhead
B1: the binding result is listed as “no binding (tested: 0.2 mg/ml)”.
